Results published in patent US20140004075A1, “PHEROMONE COMPOSITION” (The New Zealand Institute for Plant and Food Research …, priority 2010, published 2014).
“Also recorded” adds a separate entry of the source. At least one compound was matched to its structure with a doubt left. Some entries repeat one wording, which the source may state once for all of them.

Key:
male moth antennae = experiment: GC-EAD analysis of pheromone gland extracts; parameters: species or system Epiphyas postvittana; settings: GC-EAD of female pheromone gland extract
male LBAM = experiment: Field trapping experiments in apple orchards (2010); type: in vivo, Epiphyas postvittana; settings: for number of LBAM males caught on addition to the two-component blend of E11-14Ac and E9E11-14Ac: 1, 2 or 5% added (0.001, 0.002, 0.005 mg) to 0.1:0.005 mg blend
LBAM = settings: Muggleston and Foster (1989); cited from earlier work

SMILES | EAD response of male moth antennae (male moth antennae) | number of LBAM males caught on addition to the two-component blend of E11-14Ac and E9E11-14Ac (male LBAM) | male catch on addition to the two component blend of E11-14Ac and E9E11-14Ac (male LBAM; 0.1 or 0.5 or 1% added (0.0001, 0.0005, 0.001 mg)) | behavioral role (LBAM)
CC/C=C/CCCCCCCCCCOC(C)=O [Blend E11-14Ac, (E)-11-tetradecenyl acetate] | elicited any electrophysiological response | – | – | –
CC/C=C/CCCCCCCCCCO [Blend E11-14OH, (E)-11-tetradecen-1-ol] | followed by; also recorded: elicited any electrophysiological response | did not result in any significance increase | – | –
CC/C=C/C=C/CCCCCCCCOC(C)=O [Blend E9E11-14Ac, (E,E)-9,11-tetradecadienyl acetate] | followed by; also recorded: elicited any electrophysiological response | – | – | –
CCCC/C=C/CCCCCCCCCCOC(C)=O [Blend E11-16Ac, (E)-11-hexadecenyl acetate] | elicited any electrophysiological response | did not result in a significance increase | no peak in male catch was observed | –
CCCCCCCCCCCCCCOC(C)=O [Blend 14Ac, tetradecyl acetate] | – | – | – | no evidence of a behavioral role
